Values from PubChem BioAssay AID743454 (Peter MacCallum Cancer Centre, 2014)
Purpose: 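Genes whose loss kills vorinostat-resistant colon cancer cells under vorinostat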 (primary screen). Cell system: human HCT116-VR colon cancer cells, selected for vorinostat resistance. Reagents: siRNA pool against human genes, 40 nM siRNA pool. Timing: vorinostat for 24 h, read-out about 72 h after transfection. Challenge: vorinostat at 2.5 µM final. Detection: 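Cell viability by CellTiter-Fluor and caspase 3/7 activity by luminescence, each scaled to mock wells per plate, duplicates averaged, then robust z-scored over all plates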. Reading the numbers: viability robust z-score: higher = more viable cells than screen typical; caspase robust z-score: higher = more caspase 3/7 activity than screen typical. Call rule: 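a knock-down is a hit when classed RV1 or RV2 for lowered viability, or CA1 or CA2 for caspase activation; those lethal without drug were dropped; hits were retested singly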.
The deposit covers about 18,000 reagents; this is a random part of them. 450 of all reagents (2.5%) were called active. 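Single biological run; no consistent viability z cut-off exists, so the class columns, not z-scores, define the calls.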 Entries without a mark were called inactive.

no.	gene	PubChem SID	viability hit class	caspase hit class	viability robust z-score	caspase robust z-score
1	CRIM1 (cysteine rich transmembrane BMP regulator 1)	SID134313362	no change (active)	CA1 (caspase activation)	-0.54	5.38
2	NDC1 (NDC1 transmembrane nucleoporin)	SID152150277	no change	no change	0.47	-0.76
3	CHMP1B (charged multivesicular body protein 1B)	SID135620871	no change	no change	0.44	1.21
4	CRISPLD1 (cysteine rich secretory protein LCCL domain containing 1)	SID152152221	no change	no change	-1.81	2.36
5	GBF1	SID135623833	no change	no change	-1.6	1.11
6	PARP11 (poly(ADP-ribose) polymerase family member 11)	SID152151961	no change	no change	0.15	-0.65
7	CARMIL1 (capping protein regulator and myosin 1 linker 1)	SID152151857	no change	no change	-0.32	1.01
8	GSTT1 (glutathione S-transferase theta 1)	SID134315538	no change	no change	-0.92	3.97
9	RASSF9 (Ras association domain family member 9)	SID152147095	no change	no change	0.15	-0.7
10	HHIPL1 (HHIP like 1)	SID135624274	no change	no change	0.57	-0.52
11	LCE1B (late cornified envelope 1B)	SID134322839	no change	no change	-0.97	-0.69
12	TRIM55 (tripartite motif containing 55)	SID135621313	no change	no change	0.1	3.96
13	ADA2 (adenosine deaminase 2)	SID152154053	no change	no change	-2.56	0.02
14	OR11L1 (olfactory receptor family 11 subfamily L member 1)	SID135624682	no change	no change	-0.01	-0.4
15	PIP4P2 (phosphatidylinositol-4,5-bisphosphate 4-phosphatase 2)	SID134318015	no change	no change	-1.21	1.2
16	GRPEL2 (GrpE like 2, mitochondrial)	SID152149655	no change	no change	-2.08	-0.76
17	NT5C2 (5'-nucleotidase, cytosolic II)	SID134314167	no change	no change	1.25	-0.78
18	OR6V1 (olfactory receptor family 6 subfamily V member 1)	SID134329777	no change	no change	0.7	0.01
19	SPATA31H1 (SPATA31 subfamily H member 1)	SID152156200	no change	no change	0.14	-0.3
20	DHX32 (DEAH-box helicase 32 (putative))	SID134310069	no change	no change	-0.83	-0.74
21	TNFRSF9 (TNF receptor superfamily member 9)	SID135621504	no change	no change	-1.36	2.01
22	FBXO47 (F-box protein 47)	SID152148459	no change	no change	0.42	-0.7
23	SLC22A17	SID135621373	no change	no change	0.3	-0.05
24	ACP6 (acid phosphatase 6, lysophosphatidic)	SID152149507	no change	no change	1.15	-0.35
25	APOBEC4	SID152148029	no change	no change	-1.14	-0.51

Laid out differently: 5 of the entries above
{"gene":"OR11L1 (olfactory receptor family 11 subfamily L member 1)","PubChem SID":"SID135624682","viability hit class":"no change","caspase hit class":"no change","viability robust z-score":-0.01,"caspase robust z-score":-0.4}
{"gene":"PIP4P2 (phosphatidylinositol-4,5-bisphosphate 4-phosphatase 2)","PubChem SID":"SID134318015","viability hit class":"no change","caspase hit class":"no change","viability robust z-score":-1.21,"caspase robust z-score":1.2}
{"gene":"GRPEL2 (GrpE like 2, mitochondrial)","PubChem SID":"SID152149655","viability hit class":"no change","caspase hit class":"no change","viability robust z-score":-2.08,"caspase robust z-score":-0.76}
{"gene":"NT5C2 (5'-nucleotidase, cytosolic II)","PubChem SID":"SID134314167","viability hit class":"no change","caspase hit class":"no change","viability robust z-score":1.25,"caspase robust z-score":-0.78}
{"gene":"OR6V1 (olfactory receptor family 6 subfamily V member 1)","PubChem SID":"SID134329777","viability hit class":"no change","caspase hit class":"no change","viability robust z-score":0.7,"caspase robust z-score":0.01}

The list goes on.
no.	gene	PubChem SID	viability hit class	caspase hit class	viability robust z-score	caspase robust z-score
26	PHC1 (polyhomeotic homolog 1)	SID152153098	no change	no change	-0.67	-0.45
27	DBNDD1 (dysbindin domain containing 1)	SID152152709	no change	no change	-1.23	-0.28
28	STARD3NL (STARD3 N-terminal like)	SID134322442	no change	no change	0.66	-0.26
29	CBLL2 (Cbl proto-oncogene like 2)	SID152154679	no change	no change	0.18	-0.43
30	BOLA2B (bolA family member 2B)	SID135625558	no change	no change	0.86	-0.85
31	GNGT1 (G protein subunit gamma transducin 1)	SID135622372	no change	no change	-1.71	0.2
32	AGO1 (argonaute RISC component 1)	SID134310557	no change	no change	0.38	0.4
33	PODNL1 (podocan like 1)	SID134318619	no change	no change	-1.6	2.49
34	CYP4X1 (cytochrome P450 family 4 subfamily X member 1)	SID135621718	no change	no change	1	0.48
35	TUBA4A (tubulin alpha 4a)	SID134313633	no change	no change	-2.72	0.28
36	HMGN2 (high mobility group nucleosomal binding domain 2)	SID152150445	no change	no change	-4.74	1.41
37	SEC61G (SEC61 translocon subunit gamma)	SID152155701	no change	no change	-1.75	-0.18
38	STAM (signal transducing adaptor molecule)	SID134315763	no change	no change	1.78	1.16
39	TMPRSS4 (transmembrane serine protease 4)	SID135620960	no change	no change	-1.46	1.75
40	FOXL2 (forkhead box L2)	SID135621703	no change	no change	1.12	0.22
41	PDE4DIP (phosphodiesterase 4D interacting protein)	SID134325197	no change	no change	-1.59	-0.63
42	TENM3 (teneurin transmembrane protein 3)	SID152156343	no change	no change	1.04	-0.57
43	RGS4 (regulator of G protein signaling 4)	SID152148559	no change	no change	0.28	-0.52
44	COMMD1 (copper metabolism domain containing 1)	SID152155532	no change	no change	0.19	-0.02
45	UBE2Z (ubiquitin conjugating enzyme E2 Z)	SID152154094	no change	no change	-0.55	-0.12
46	CCZ1B (CCZ1B vacuolar protein trafficking and biogenesis associated)	SID135624219	no change	no change	1.34	-0.35
47	PALLD (palladin, cytoskeletal associated protein)	SID152152350	no change	no change	0.32	0.27
48	PCYT1B (phosphate cytidylyltransferase 1B, choline)	SID152150875	no change	no change	-0.44	-0.01
49	FTMT (ferritin mitochondrial)	SID134322299	no change	no change	-2.19	-1.5
50	RCCD1 (RCC1 domain containing 1)	SID152151542	no change	no change	0.31	-0.28
51	TM7SF3 (transmembrane 7 superfamily member 3)	SID134311175	no change	no change	2.2	-0.69
52	ANKRD1 (ankyrin repeat domain 1)	SID134316779	no change	no change	0.24	-1.01
53	DNAJC19 (DnaJ heat shock protein family (Hsp40) member C19)	SID134320036	no change	no change	-0.76	-1.07
54	OR5T3 (olfactory receptor family 5 subfamily T member 3)	SID152156028	no change	no change	-1.27	2.81
55	NAV1 (neuron navigator 1)	SID152148054	no change	no change	-0.89	1.39
56	OR5B2 (olfactory receptor family 5 subfamily B member 2)	SID134329953	no change	no change	1.15	1.07
57	TUBA1C (tubulin alpha 1c)	SID152156620	no change	no change	-4.04	0.57
